Assay results from PMC12208548.
No constants are given. Whether binding was seen depends on the method and setting. Binding seen in cells or lysates may run through a third protein. Binding can be weak; no strength is given. For some of these results: Where a sequence is shown, tags or fusion partners need not be part of it.

Protein sequences, listed by entry. Tags and fused reporters are not part of them. Lines headed by an entry give the natural chain unless they say otherwise; changes in a name come on top.
UniProt P21359: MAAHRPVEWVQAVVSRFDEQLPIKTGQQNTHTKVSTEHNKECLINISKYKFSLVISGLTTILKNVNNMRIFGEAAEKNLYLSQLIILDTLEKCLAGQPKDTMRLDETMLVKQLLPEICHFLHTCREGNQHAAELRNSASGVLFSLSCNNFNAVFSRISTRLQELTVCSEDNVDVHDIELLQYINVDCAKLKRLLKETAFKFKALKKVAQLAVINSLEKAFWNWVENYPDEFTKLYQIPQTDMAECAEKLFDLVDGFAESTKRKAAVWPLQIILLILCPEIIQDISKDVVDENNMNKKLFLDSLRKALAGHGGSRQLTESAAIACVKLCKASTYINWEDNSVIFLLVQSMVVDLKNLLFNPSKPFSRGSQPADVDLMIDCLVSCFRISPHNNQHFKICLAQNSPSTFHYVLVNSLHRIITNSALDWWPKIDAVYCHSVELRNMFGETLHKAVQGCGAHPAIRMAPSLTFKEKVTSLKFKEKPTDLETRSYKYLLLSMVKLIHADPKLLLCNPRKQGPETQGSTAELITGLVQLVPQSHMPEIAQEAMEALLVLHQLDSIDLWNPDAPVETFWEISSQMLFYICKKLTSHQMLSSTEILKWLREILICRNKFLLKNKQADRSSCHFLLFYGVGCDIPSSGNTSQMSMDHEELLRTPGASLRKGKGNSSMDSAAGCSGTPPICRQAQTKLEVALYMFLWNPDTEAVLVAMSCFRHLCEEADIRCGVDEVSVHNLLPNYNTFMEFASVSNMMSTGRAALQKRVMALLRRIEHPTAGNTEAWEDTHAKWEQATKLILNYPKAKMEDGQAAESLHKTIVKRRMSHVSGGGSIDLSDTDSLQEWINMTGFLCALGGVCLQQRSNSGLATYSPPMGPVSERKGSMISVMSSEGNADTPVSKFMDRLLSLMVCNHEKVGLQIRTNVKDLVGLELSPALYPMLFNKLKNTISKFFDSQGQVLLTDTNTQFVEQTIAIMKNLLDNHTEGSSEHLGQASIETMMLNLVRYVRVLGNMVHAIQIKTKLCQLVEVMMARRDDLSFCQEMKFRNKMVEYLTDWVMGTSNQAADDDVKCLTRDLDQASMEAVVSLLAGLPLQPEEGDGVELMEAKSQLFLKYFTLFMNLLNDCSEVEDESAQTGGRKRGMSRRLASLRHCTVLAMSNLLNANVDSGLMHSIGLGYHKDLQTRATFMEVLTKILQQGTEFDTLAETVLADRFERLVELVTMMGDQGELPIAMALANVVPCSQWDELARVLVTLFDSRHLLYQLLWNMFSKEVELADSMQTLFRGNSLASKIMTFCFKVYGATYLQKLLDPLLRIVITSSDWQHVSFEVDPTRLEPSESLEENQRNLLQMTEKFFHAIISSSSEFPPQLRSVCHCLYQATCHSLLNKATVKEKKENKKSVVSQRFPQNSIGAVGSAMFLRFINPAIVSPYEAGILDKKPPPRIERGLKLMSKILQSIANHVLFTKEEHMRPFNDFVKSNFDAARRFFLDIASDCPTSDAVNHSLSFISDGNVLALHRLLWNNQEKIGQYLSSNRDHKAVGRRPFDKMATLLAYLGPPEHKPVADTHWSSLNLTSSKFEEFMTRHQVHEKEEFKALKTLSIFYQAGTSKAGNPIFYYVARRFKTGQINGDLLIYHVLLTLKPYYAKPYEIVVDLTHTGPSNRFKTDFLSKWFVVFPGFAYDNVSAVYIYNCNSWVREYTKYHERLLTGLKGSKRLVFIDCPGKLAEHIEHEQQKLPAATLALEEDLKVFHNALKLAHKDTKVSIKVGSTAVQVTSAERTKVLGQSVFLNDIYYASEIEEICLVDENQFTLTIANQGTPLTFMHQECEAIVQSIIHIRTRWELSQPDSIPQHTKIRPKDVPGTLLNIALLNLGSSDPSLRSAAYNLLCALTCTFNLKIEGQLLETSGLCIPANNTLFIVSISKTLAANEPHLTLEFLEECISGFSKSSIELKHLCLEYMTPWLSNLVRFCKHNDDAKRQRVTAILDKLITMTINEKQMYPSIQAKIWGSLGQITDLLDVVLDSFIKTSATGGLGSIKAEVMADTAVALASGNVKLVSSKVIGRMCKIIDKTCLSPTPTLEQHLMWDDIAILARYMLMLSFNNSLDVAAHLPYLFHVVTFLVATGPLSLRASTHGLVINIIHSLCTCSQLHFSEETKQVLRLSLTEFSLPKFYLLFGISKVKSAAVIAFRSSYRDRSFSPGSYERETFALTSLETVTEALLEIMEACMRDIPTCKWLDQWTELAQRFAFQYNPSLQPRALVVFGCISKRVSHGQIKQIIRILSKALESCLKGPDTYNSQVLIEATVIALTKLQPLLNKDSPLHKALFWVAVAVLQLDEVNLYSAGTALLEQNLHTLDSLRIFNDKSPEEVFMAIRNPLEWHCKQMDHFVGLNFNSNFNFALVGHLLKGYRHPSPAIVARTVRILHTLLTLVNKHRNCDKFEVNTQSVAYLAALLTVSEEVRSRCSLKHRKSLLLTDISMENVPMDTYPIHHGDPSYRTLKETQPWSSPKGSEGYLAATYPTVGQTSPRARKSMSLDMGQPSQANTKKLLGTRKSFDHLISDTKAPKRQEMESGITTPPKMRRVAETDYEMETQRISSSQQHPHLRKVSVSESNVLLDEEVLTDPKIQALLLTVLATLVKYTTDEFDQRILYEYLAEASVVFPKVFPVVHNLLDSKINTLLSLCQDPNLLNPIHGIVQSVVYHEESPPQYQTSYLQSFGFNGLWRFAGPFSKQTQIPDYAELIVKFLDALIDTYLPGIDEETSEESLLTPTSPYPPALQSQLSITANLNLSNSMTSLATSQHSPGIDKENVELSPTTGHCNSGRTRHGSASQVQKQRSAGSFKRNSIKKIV
UniProt Q9UKB1: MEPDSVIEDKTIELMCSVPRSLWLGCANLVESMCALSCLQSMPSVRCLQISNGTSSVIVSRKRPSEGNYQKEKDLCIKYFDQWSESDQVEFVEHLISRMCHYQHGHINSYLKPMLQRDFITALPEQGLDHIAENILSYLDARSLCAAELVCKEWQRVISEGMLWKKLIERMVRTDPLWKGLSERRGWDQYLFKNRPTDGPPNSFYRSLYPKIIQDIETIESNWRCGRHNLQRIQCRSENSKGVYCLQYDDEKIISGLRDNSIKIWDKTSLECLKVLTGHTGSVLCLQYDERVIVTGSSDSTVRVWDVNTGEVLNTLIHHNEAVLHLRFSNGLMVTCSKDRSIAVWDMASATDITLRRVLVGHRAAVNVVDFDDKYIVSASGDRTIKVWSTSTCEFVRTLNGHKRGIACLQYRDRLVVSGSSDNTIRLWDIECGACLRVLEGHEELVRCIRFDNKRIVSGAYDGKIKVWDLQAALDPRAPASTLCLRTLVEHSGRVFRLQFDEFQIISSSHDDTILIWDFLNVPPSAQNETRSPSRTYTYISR

Key:
[1] = target: GFP-tagged neurofibromin domain D3 iso1/GRD1 (human) (UniProt P21359); assay: co-IP; HEK293T cotransfected with GFP-tagged GRD1 (wild type or phosphodegron mutants) and Flag-FBXW11; anti-GFP IP 72 hours after transfection; FBXW11 detected by Flag immunoblotting
[2] = target: Flag-tagged FBXW11 (human) (UniProt Q9UKB1); assay: co-IP; HEK293T cotransfected with Flag-tagged FBXW11 or FBXO3 and GFP-tagged NF1 domains; MG132 for 6 hours before lysis (15 uM in the legend, 15 mM in the methods); anti-FLAG M2 affinity gel at 4°C overnight; washes with 250 mM NaCl/IP lysis buffer; anti-GFP immunoblotting
[3] = target: T1, Flag-tagged FBXO3 (human) (UniProt Q9UK99); assay: as above
T1 sequence: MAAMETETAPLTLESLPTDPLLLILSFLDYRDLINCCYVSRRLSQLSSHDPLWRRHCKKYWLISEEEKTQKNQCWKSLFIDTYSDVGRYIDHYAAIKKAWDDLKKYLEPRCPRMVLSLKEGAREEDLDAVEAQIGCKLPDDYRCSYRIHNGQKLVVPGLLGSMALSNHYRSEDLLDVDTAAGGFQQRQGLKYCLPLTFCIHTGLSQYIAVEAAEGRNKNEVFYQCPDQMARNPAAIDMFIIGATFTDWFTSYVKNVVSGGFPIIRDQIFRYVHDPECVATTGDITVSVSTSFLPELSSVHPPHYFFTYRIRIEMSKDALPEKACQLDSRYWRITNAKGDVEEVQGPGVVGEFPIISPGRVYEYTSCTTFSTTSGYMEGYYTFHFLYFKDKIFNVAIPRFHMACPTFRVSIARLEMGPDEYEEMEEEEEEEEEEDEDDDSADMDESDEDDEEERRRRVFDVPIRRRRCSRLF

Row | binding [1] | binding [2] | binding [3] | Substance
1 | binds | – | – | Flag-tagged FBXW11 (from UniProt Q9UKB1 1-542)
2 | – | binds | – | GFP-tagged neurofibromin domain D3 iso1/GRD1 (from UniProt P21359-2) (domain or fragment)
3 | – | no binding | binds | GFP-tagged neurofibromin domain D3 iso2/GRD2 (from UniProt P21359) (domain or fragment)
